# Source: PubChem BioAssay AID1347076 (National Center for Advancing Translational Sciences (NCATS), 2019)
# Out of some 400,000 compounds screened, about 13,000 (3.2%) were called active. Inconclusive means that the source gave no clear call. Such entries were picked first, then a sample of the others. The call rests on the fitted dose curve; in most records, active means well fitted cell-killing curve with a large enough effect; inconclusive means small, poorly fitted or top-dose-only effect, or effect the other way; inactive means flat fitted curve, though single readings scatter. Potencies beside an inconclusive call are fits to weak or partial responses and may not hold up.
# Experiment: qHTS assay for MDR1-selective chemotherapeutics: Primary screen using the drug-selected MDR subline cells KB-V1; further: nearly all actives have a fitted effect of over 60% in size
# Settings: KB-V1 MDR cells viability, CellTiter-Glo, 72 h; activity change, negative = cytotoxicity: at 46.1 µM (top of the series)
# Outline: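 Luminescent ATP read-out (CellTiter-Glo, 10 min) measures survival of drug-selected KB-V1 MDR cells after 72 h, 37 degrees C compound exposure. Medium: phenol-red-free DMEM, 10% FBS. Values from fitted concentration-response curves.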
# On the % scale 0 is the no-effect control and ±100 the full control effect; potency means the concentration at half of the fitted maximal effect.
SMILES,Potency,"activity change, negative = cytotoxicity"
COc1cc(C)nc(OCCNC(=O)COc2ccc(Cl)cc2C)n1,inactive,
CC(C)Oc1cccc(C(=O)C2CCCN(S(=O)(=O)C(C)C)C2)c1 (configuration not stated),"inconclusive: 11.6 µM [cytotoxic, partial curve]",
O=C(NC(=S)Nc1nc(-c2ccc(Br)cc2)cs1)c1ccco1,"inconclusive: 20.6 µM [rising, partial curve, poor fit]",
COC(=O)c1ccc(C)c(NC(=O)CSc2nnc3ccccn23)c1,"inconclusive: 29.1 µM [rising, single point]",
CCN(CC)C(=O)C1CCN(S(=O)(=O)c2ccc3oc4ccccc4c3c2)CC1,active: 11.6 µM,
CN(Cc1ccccc1)Cc1nc2c(c(=O)n(C)c(=O)n2C)n1Cc1ccccc1Cl,active: 9.2 µM,
O=[N+]([O-])c1cc2c(cc1/C=N/Nc1nc(N3CCCC3)nc(N3CCCC3)n1)OCO2,"inconclusive: 18.4 µM [cytotoxic, single point]",
Cc1cc(S(=O)(=O)NCc2ccccc2)ccc1OCC(=O)N1CCCC1,"inconclusive: 23.1 µM [cytotoxic, single point]",
O=C(COC(=O)c1cccc(F)c1)Nc1cccc(S(=O)(=O)N2CCCCC2)c1,inactive,
O=c1c(Cl)c(NCc2ccccc2Cl)cnn1C12CC3CC(CC(C3)C1)C2,active: 18.4 µM,
CC(=O)c1c(C)[nH]c(C(=O)Nc2nccs2)c1C,"inconclusive: 29.1 µM [cytotoxic, single point]",
NC(c1csc(Nc2cc(Oc3ccccc3)ncn2)n1)C1CCCCC1 (configuration not stated),"inconclusive: 20.6 µM [cytotoxic, partial curve, poor fit]",
COC(=O)CCC(C)N1CCC(Oc2ccc(C(=O)N3CCCC3)cc2)CC1 (configuration not stated),inactive,
COc1ccccc1N1CCN(c2ncnc3c2cnn3-c2cccc(Cl)c2)CC1,"inconclusive: 2.59 µM [cytotoxic, partial curve, poor fit]",
COc1ccc(-c2[nH]c(-c3cccc(OC)c3)nc2SCC(=O)NC2CCCC2)cc1,inactive,
O=C(c1cc(-c2ccncc2)nc2ccccc12)N1CCN(c2ccc(N3CCOCC3)nn2)CC1,inactive,
COc1ccccc1CN(C(=O)CNC(=O)c1ccco1)C(C(=O)NCC1CCCO1)c1ccc(OC)c(OC)c1 (configuration not stated),"inconclusive: 0.259 µM [cytotoxic, full curve, poor fit]",
Cc1ccc(C2=NC3(CCCC3)N=C2SCC(=O)Nc2ccc3c(c2)OCCO3)cc1,inactive,
Cn1ncc(Br)c1NC(=O)CSc1ccc(Cl)cc1,inactive,
CCOc1ccc(NC(=O)CN(C)CC(=O)NC(C)c2ccccc2)cc1OCC (configuration not stated),"inconclusive: 29.1 µM [cytotoxic, single point]",
FC(F)(F)c1cc(-c2ccc(Cl)cc2)nc2ncnn12,inactive,
CCc1cccc2c1Sc1ccccc1CC2N1CCNCC1 (configuration not stated),active: 13 µM,
COc1cccc(-c2cc3nc(-c4ccccc4)cc(N4CCN(C(=O)c5ccoc5)CC4)n3n2)c1,"inconclusive: 29.1 µM [cytotoxic, single point]",
c1ccc(C(c2ccccc2)N2CCN(c3nc4ccccc4n4cnnc34)CC2)cc1,active: 9.2 µM,

SMILES,Potency,"activity change, negative = cytotoxicity"
CS(=O)(=O)N(CC(=O)NCc1ccco1)c1cccc([N+](=O)[O-])c1,inactive,
CCC(=O)Nc1cccc(NC(=S)NC(=O)c2ccc(Cl)cc2Cl)c1,"inconclusive: 8.2 µM [cytotoxic, partial curve]",
O=C1C2C3C=CC(c4ccccc4)(C2C(=O)N1c1cccc(Cl)c1)C1C(=O)N(c2cccc(Cl)c2)C(=O)C31 (configuration not stated),inactive,
CCOc1ccc(OCc2ccc(C(=O)N(CC)CC)cc2)cc1,inactive,
CC(=O)N1CCc2cc(S(=O)(=O)NCCC3=CCCCC3)ccc21,"inconclusive: 9.2 µM [cytotoxic, partial curve, poor fit]",
Cc1sc(N)nc1-c1cccc([N+](=O)[O-])c1,inactive,
CCCCOC(=O)CCc1n[nH]c(=O)[nH]c1=O,"inconclusive: 18.4 µM [rising, partial curve, poor fit]",
O=C(C1CCN(S(=O)(=O)c2ccccc2)CC1)N1CCc2ccccc21,"inconclusive: 16.4 µM [cytotoxic, single point]",
O=C(COc1ccc(Cl)cc1)Nc1ccc2c(c1)C(=O)NC2=O,"inconclusive: 32.6 µM [rising, single point]",
CC(=O)Nc1cccc(-c2ccnc3c2CC(C)(C(=O)Nc2cccc(C(F)(F)F)c2)O3)c1 (configuration not stated),"inconclusive: 18.4 µM [cytotoxic, single point]",
O=C(Nc1ccc2c(c1)OCO2)C1CCCCN1S(=O)(=O)c1ccccc1 (configuration not stated),"inconclusive: 18.4 µM [cytotoxic, partial curve]",
N#CC1=C2SC=C(c3ccc(Br)cc3)N2CCCC1=O,"inconclusive: 29.1 µM [cytotoxic, single point]",
COc1ccc(C)cc1NC(=O)C1CCN(C(=O)c2ccco2)CC1,"inconclusive: 18.4 µM [cytotoxic, partial curve, poor fit]",
O=C(NCc1cccnc1)Nc1cccc(F)c1,"inconclusive: 20.6 µM [rising, single point]",
COc1ccccc1/C=C/C1(C(=O)NC2CCCC2)CC(=O)N1c1ccccc1 (configuration not stated),active: 3.66 µM,
COc1ccc(C(=O)NC2CCCc3c2cnn3-c2cc(F)cc(F)c2)c(OC)c1OC (configuration not stated),active: 18.4 µM,
CN(C)C(=O)c1ccc(NC(=O)c2ccccc2Sc2ccccc2C#N)cc1,"inconclusive: 16.4 µM [cytotoxic, single point]",
COc1cccc2[nH]c(C(=O)NCCc3ccccc3)cc12,"inconclusive: 29.1 µM [rising, single point]",
Cc1c(CC(=O)NCCCC(=O)O)c(=O)oc2cc3c(cc12)CCC(C)(C)O3,,inconclusive: 31%
CC(C)C1C(=O)N(Cc2cn(CCC3OCCCO3)nn2)CCS(=O)(=O)N1Cc1ccc(-c2ccc(Cl)c(Cl)c2)cc1 (configuration not stated),"inconclusive: 29.1 µM [cytotoxic, single point]",
CCc1cccc(CC)c1NC(=O)CN1CC(C)SC1=NC1CCCCC1 (configuration not stated),"inconclusive: 29.1 µM [cytotoxic, single point]",
CCCc1c(Cc2cccc(F)c2)ncn1Cc1cccc(-c2ccccc2)c1,"inconclusive: 29.1 µM [cytotoxic, single point]",
CC1=C([N+](=O)[O-])C(c2ccc3c(c2)OCO3)N(C)C(=O)N1C (configuration not stated),inactive,
Cc1ccc(Nc2ncnc3ccccc23)cc1,"inconclusive: 20.6 µM [cytotoxic, single point]",

SMILES,Potency,"activity change, negative = cytotoxicity"
Cc1cccc(OCCC(=O)Nc2ccc(C)c(S(=O)(=O)N3CCCCC3)c2)c1,"inconclusive: 20.6 µM [cytotoxic, single point]",
C=CCn1c(Cc2cccs2)nnc1SC/C=C/c1ccccc1,"inconclusive: 20.6 µM [cytotoxic, single point]",
COC(=O)c1ccc(Cn2nnc3ccccc32)cc1,,inconclusive: -3.33%
COc1ccccc1N1CCN(CCCCCCOc2ccc(F)cc2)CC1,active: 3.66 µM,
CCOc1ccc(-n2c(C)c(C(C)=O)c3cc(O)ccc32)cc1,"inconclusive: 29.1 µM [rising, single point]",
COc1ccc(C(C)=O)cc1COC(=O)Cc1n[nH]c(=O)c2ccccc12,active: 13 µM,
CCC(=O)Nc1cc2c3c(c1)CCN3C(=O)CC2,,inconclusive: 32.6%
NS(=O)(=O)c1cccnc1Nc1cccc(C(F)(F)F)c1,"inconclusive: 0.0082 µM [rising, full curve]",
O=C(Nc1ccccc1F)c1cnc(N2CCCCC2)c2ccccc12,inactive,
COc1cccc(CN2C(=O)c3cccc(N)c3C2=O)c1,inactive,
COC(=O)c1ccc(NC(=O)CO/N=C2\CCCc3nonc32)cc1,"inconclusive: 23.1 µM [cytotoxic, single point]",
Cc1ccccc1C(=O)c1cccn1CC(=O)NCCCN1CCCCC1,inactive,
Cc1oc(-c2ccccc2F)nc1Cn1c(SCc2cccc(C(F)(F)F)c2)nc2ccncc21,inactive,
CCOC(=O)c1[nH]cnc1C(=O)Nc1ccncc1,"inconclusive: 6.51 µM [rising, partial curve, poor fit]",
COc1ccc(N2CCN(c3ncnc4scc(-c5ccccc5)c34)CC2)cc1,"inconclusive: 13 µM [cytotoxic, partial curve]",
Cc1cccc(NC(=O)CCCSc2nc3ccccc3[nH]2)c1,"inconclusive: 14.6 µM [cytotoxic, partial curve]",
CCn1nnnc1NCc1c(OC)ccc2ccccc12,"inconclusive: 20.6 µM [cytotoxic, single point]",
COc1ccc(N(CC(=O)Nc2cc(OC)cc(OC)c2)S(=O)(=O)c2c(C)noc2C)cc1,inactive,
O=C(Nc1ccc(Cl)cn1)C1C(c2ccccc2)C1(Cl)Cl (configuration not stated),"inconclusive: 18.4 µM [cytotoxic, single point]",
O=C(CSC1=NC(=O)C(c2ccccc2)C(=O)N1)Nc1cccc(Cl)c1 (configuration not stated),"inconclusive: 18.4 µM [rising, single point]",
Cc1ccc(C(c2nnnn2C(C)(C)C)N2CCC(C)CC2)cc1 (configuration not stated),"inconclusive: 18.4 µM [cytotoxic, partial curve, poor fit]",
CCOc1ccc2[nH]c(=O)c(CN(Cc3ccccc3OC)C(=O)c3ccccc3)cc2c1,active: 4.61 µM,
Oc1ccc(Cl)cc1/C=N/c1nccs1,"inconclusive: 35.5 µM [cytotoxic, single point]",
CC(Sc1nc2cc(Cl)ccc2s1)C(=O)Nc1cccc(S(=O)(=O)N2CCOCC2)c1 (configuration not stated),"inconclusive: 7.31 µM [cytotoxic, partial curve]",

# Reprinted at random: 5 records from the list, in no set order.
SMILES,Potency,"activity change, negative = cytotoxicity"
COc1cccc(-c2cc3nc(-c4ccccc4)cc(N4CCN(C(=O)c5ccoc5)CC4)n3n2)c1,"inconclusive: 29.1 µM [cytotoxic, single point]",
O=[N+]([O-])c1cc2c(cc1/C=N/Nc1nc(N3CCCC3)nc(N3CCCC3)n1)OCO2,"inconclusive: 18.4 µM [cytotoxic, single point]",
CS(=O)(=O)N(CC(=O)NCc1ccco1)c1cccc([N+](=O)[O-])c1,inactive,
COc1ccc(-c2[nH]c(-c3cccc(OC)c3)nc2SCC(=O)NC2CCCC2)cc1,inactive,
COc1ccc(N(CC(=O)Nc2cc(OC)cc(OC)c2)S(=O)(=O)c2c(C)noc2C)cc1,inactive,
